Results are given in words; binding and its absence hold for the method and conditions named. Some entries that bind do so weakly or less than the wild type.
Target: T1, recombinant full-length Apaf-1XL, O14727
T1 chain: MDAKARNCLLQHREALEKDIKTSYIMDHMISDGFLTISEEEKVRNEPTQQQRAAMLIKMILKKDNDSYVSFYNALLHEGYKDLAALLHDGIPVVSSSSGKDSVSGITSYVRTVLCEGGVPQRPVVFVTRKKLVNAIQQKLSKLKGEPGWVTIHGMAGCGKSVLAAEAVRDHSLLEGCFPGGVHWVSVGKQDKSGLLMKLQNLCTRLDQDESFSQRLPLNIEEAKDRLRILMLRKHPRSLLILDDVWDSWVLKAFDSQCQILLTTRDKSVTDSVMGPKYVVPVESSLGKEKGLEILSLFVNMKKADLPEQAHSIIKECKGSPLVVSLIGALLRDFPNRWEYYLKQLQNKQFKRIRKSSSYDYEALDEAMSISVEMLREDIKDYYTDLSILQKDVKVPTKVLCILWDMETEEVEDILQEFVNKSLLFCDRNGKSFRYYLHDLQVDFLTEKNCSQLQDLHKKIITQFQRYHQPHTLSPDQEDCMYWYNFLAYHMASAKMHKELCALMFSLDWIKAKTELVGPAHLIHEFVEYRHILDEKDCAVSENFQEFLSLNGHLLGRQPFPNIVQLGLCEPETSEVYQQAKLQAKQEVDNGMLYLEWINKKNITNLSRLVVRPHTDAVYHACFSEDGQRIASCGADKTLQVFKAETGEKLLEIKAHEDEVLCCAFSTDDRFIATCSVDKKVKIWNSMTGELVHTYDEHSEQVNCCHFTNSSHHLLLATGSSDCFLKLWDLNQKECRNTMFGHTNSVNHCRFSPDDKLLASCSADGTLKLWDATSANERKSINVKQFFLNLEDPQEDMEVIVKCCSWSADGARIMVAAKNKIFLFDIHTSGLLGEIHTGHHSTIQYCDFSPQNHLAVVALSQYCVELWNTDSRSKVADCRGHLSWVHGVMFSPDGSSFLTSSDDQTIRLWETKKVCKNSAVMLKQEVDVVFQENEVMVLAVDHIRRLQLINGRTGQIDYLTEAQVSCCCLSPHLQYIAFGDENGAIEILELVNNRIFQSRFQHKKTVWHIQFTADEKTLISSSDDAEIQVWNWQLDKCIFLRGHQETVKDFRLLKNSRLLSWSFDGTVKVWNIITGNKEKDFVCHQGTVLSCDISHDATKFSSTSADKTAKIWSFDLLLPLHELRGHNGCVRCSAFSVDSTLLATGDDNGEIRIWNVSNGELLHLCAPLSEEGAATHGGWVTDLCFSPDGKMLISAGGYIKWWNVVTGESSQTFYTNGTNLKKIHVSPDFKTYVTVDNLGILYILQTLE
Assay: SEC; Apaf-1 (300 nM) with C9 protein (200 nM) and Cc/dATP, 30 min 37 °C; Superose-6 gel filtration, pooled fractions precipitated and immunoblotted for Apaf-1 and C9; both purified
Settings: remark: other sources report otherwise

B1: recombinant full-length Apaf-1XL, O14727-1 1-1248 (protein)
chain: MDAKARNCLLQHREALEKDIKTSYIMDHMISDGFLTISEEEKVRNEPTQQQRAAMLIKMILKKDNDSYVSFYNALLHEGYKDLAALLHDGIPVVSSSSGKDSVSGITSYVRTVLCEGGVPQRPVVFVTRKKLVNAIQQKLSKLKGEPGWVTIHGMAGCGKSVLAAEAVRDHSLLEGCFPGGVHWVSVGKQDKSGLLMKLQNLCTRLDQDESFSQRLPLNIEEAKDRLRILMLRKHPRSLLILDDVWDSWVLKAFDSQCQILLTTRDKSVTDSVMGPKYVVPVESSLGKEKGLEILSLFVNMKKADLPEQAHSIIKECKGSPLVVSLIGALLRDFPNRWEYYLKQLQNKQFKRIRKSSSYDYEALDEAMSISVEMLREDIKDYYTDLSILQKDVKVPTKVLCILWDMETEEVEDILQEFVNKSLLFCDRNGKSFRYYLHDLQVDFLTEKNCSQLQDLHKKIITQFQRYHQPHTLSPDQEDCMYWYNFLAYHMASAKMHKELCALMFSLDWIKAKTELVGPAHLIHEFVEYRHILDEKDCAVSENFQEFLSLNGHLLGRQPFPNIVQLGLCEPETSEVYQQAKLQAKQEVDNGMLYLEWINKKNITNLSRLVVRPHTDAVYHACFSEDGQRIASCGADKTLQVFKAETGEKLLEIKAHEDEVLCCAFSTDDRFIATCSVDKKVKIWNSMTGELVHTYDEHSEQVNCCHFTNSSHHLLLATGSSDCFLKLWDLNQKECRNTMFGHTNSVNHCRFSPDDKLLASCSADGTLKLWDATSANERKSINVKQFFLNLEDPQEDMEVIVKCCSWSADGARIMVAAKNKIFLFDIHTSGLLGEIHTGHHSTIQYCDFSPQNHLAVVALSQYCVELWNTDSRSKVADCRGHLSWVHGVMFSPDGSSFLTSSDDQTIRLWETKKVCKNSAVMLKQEVDVVFQENEVMVLAVDHIRRLQLINGRTGQIDYLTEAQVSCCCLSPHLQYIAFGDENGAIEILELVNNRIFQSRFQHKKTVWHIQFTADEKTLISSSDDAEIQVWNWQLDKCIFLRGHQETVKDFRLLKNSRLLSWSFDGTVKVWNIITGNKEKDFVCHQGTVLSCDISHDATKFSSTSADKTAKIWSFDLLLPLHELRGHNGCVRCSAFSVDSTLLATGDDNGEIRIWNVSNGELLHLCAPLSEEGAATHGGWVTDLCFSPDGKMLISAGGYIKWWNVVTGESSQTFYTNGTNLKKIHVSPDFKTYVTVDNLGILYILQTLE
binding: binds
